Data published in patent US20130280269A1, “Manipulation of HSP70 and IRE1Alpha Protein Interactions” (National University of Ireland, priority 2010, published 2013).
Results are given in words; binding and its absence hold for the method and conditions named. In cells and extracts the contact can be indirect. Some results given as binding are weak or reduced against the parent protein; the word gives no strength.

Sequences of proteins named here, by UniProt entry; tags and fusion partners are left off. A change or cut given only in a name is not applied to a line headed by its entry.
UniProt O75460: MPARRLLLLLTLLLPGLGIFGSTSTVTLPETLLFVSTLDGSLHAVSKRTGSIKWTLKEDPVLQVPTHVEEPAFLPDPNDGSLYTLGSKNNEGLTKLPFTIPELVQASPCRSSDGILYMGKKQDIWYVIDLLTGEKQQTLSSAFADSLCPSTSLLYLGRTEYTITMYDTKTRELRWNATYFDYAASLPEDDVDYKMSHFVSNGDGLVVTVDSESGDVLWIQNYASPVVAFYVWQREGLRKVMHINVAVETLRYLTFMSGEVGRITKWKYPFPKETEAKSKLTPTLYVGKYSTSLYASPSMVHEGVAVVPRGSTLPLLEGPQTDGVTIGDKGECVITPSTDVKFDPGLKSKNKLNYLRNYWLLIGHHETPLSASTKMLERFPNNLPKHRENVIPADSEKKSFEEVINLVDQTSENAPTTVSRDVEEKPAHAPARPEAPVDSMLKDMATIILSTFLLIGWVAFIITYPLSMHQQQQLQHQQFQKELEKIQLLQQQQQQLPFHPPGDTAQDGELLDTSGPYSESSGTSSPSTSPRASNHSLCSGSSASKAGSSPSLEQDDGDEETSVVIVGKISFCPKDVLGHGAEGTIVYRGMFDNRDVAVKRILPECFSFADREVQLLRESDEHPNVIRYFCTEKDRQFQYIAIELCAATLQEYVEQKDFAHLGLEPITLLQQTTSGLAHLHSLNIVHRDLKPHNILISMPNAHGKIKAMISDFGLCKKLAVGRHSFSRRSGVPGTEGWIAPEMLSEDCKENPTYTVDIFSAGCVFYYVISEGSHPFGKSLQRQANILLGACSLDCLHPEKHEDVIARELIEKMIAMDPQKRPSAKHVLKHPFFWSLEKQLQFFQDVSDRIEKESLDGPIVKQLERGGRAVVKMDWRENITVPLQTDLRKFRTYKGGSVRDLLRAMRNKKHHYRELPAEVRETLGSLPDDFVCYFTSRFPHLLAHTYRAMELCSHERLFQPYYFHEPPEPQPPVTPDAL
UniProt P0DMV8: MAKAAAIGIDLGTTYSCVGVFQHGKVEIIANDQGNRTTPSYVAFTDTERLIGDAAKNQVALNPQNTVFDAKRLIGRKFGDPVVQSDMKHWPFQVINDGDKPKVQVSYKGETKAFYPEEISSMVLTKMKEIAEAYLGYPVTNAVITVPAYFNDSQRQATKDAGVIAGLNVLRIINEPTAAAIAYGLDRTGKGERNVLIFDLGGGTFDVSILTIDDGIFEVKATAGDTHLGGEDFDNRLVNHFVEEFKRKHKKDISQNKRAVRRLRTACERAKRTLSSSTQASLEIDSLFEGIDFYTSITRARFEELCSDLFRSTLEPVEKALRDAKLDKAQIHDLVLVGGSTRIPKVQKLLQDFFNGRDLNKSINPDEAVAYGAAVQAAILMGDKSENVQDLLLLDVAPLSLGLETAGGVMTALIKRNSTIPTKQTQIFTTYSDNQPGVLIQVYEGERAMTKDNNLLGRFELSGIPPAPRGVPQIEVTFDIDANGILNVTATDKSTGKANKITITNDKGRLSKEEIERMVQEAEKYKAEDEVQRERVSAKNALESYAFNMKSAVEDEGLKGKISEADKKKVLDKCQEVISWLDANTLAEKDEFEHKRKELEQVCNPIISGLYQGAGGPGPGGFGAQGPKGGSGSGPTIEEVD

Experiments:
[1] = target: wild-type IRE1α FL-HA (Homo sapiens (Human)) (UniProt O75460); experiment: co-immunoprecipitation with HA-agarose from PC12 cells, western blot (FIG. 5D)
[2] = target: wild-type IRE1α FL-HA (Homo sapiens (Human)) (UniProt O75460); experiment: co-immunoprecipitation and western blot (legend of FIG. 5)
[3] = target: wild-type IRE1α FL-HA (Homo sapiens (Human)) (UniProt O75460); experiment: co-immunoprecipitation with HA-agarose from Hsp72-expressing PC12 cells, western blot; the interaction was not altered by thapsigargin treatment (FIG. 5C)

| binding [1] | binding [2] | binding [3] | Substance |
| --- | --- | --- | --- |
| binds | – | – | ΔEEVD-Hsp72 (from UniProt P0DMV8 1-637) |
| binds | binds | binds | wild-type Hsp72 (inducible form of Hsp70), stably expressed in PC12 cells (from UniProt P0DMV8 2-641) |
